Values from PubChem BioAssay AID1259331 (Drosophila RNAi Screening Center, 2017).

Test: 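Fly transmembrane-protein genes that affect zinc toxicity in cultured cells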 (primary screen)
Cell system: Drosophila S2R+ cells
Reagents: long dsRNA against Drosophila genes
Timing: 5 days (4 days knock-down, then 1 day zinc)
Treatment: zinc chloride at 15 mM final level for 1 day
Measured: 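Luminescent ATP assay standing in for viability; Z score is the mean over three replicate plates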
Scale: mean Z score: higher = more ATP than other wells, better survival under zinc; ATP luminescence: higher = more ATP, more viable cells
Active means: 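Hit when the absolute Z score is greater than 1.5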
Meaning of the calls: active = hit, ATP up or down; inactive = not a hit
In all, the deposit lists about 3,100 reagents; shown is a part drawn at random. 126 of them (4.1%) count as active. 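Calls are per reagent; zinc was so toxic that few knock-downs lowered ATP further, so most hits raise ATP.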 The raw values are shown without normalisation. Unmarked entries are inactive. Names joined by + are all predicted targets of the reagent. Not stated in the record: the amount of reagent.

CG32305 (GeneID 317967) [DRSC08614]
- mean Z score: -0.285
- ATP luminescence, replicate 1: 71171
- ATP luminescence, replicate 2: 67475

CG32305 (GeneID 317967) [DRSC29854]
- mean Z score: -0.0225
- ATP luminescence, replicate 1: 48337
- ATP luminescence, replicate 2: 41668

CG42260 (GeneID 37614) [DRSC04385]
- mean Z score: 0.29
- ATP luminescence, replicate 1: 56585
- ATP luminescence, replicate 2: 38548

CG4313 (GeneID 31169) [DRSC18514]
- mean Z score: -0.456
- ATP luminescence, replicate 1: 39526
- ATP luminescence, replicate 2: 43297

CG4313 (GeneID 31169) [DRSC24627]
- mean Z score: 0.62
- ATP luminescence, replicate 1: 65074
- ATP luminescence, replicate 2: 76942

CG14420 (GeneID 31284) [DRSC17917]
- mean Z score: 0.508
- ATP luminescence, replicate 1: 67886
- ATP luminescence, replicate 2: 81213

CG14420 (GeneID 31284) [DRSC25167]
- mean Z score: -0.374
- ATP luminescence, replicate 1: 53276
- ATP luminescence, replicate 2: 50909

Coq4 + frc [DRSC10381]
- mean Z score: 0.456
- ATP luminescence, replicate 1: 89893
- ATP luminescence, replicate 2: 65640

SLC5A11 (GeneID 34117) [DRSC03088]
- mean Z score: -0.176
- ATP luminescence, replicate 1: 52064
- ATP luminescence, replicate 2: 55505

SLC5A11 (GeneID 34117) [DRSC39771]
- mean Z score: -0.0981
- ATP luminescence, replicate 1: 52861
- ATP luminescence, replicate 2: 56932

senju (GeneID 33734) [DRSC02366]
- mean Z score: 0.386
- ATP luminescence, replicate 1: 54750
- ATP luminescence, replicate 2: 49057

senju (GeneID 33734) [DRSC39769]
- mean Z score: -0.0856
- ATP luminescence, replicate 1: 53790
- ATP luminescence, replicate 2: 56308

CG5348 (GeneID 36877) [DRSC06933]
- mean Z score: -0.419
- ATP luminescence, replicate 1: 67134
- ATP luminescence, replicate 2: 66320

CG5348 (GeneID 36877) [DRSC39672]
- mean Z score: 0.33
- ATP luminescence, replicate 1: 59432
- ATP luminescence, replicate 2: 67879

Gr32a (GeneID 34545) [DRSC02400]
- mean Z score: -0.532
- ATP luminescence, replicate 1: 44377
- ATP luminescence, replicate 2: 41621

Gr32a (GeneID 34545) [DRSC39450]
- mean Z score: -0.0479
- ATP luminescence, replicate 1: 40738
- ATP luminescence, replicate 2: 59287

Aplip1 (GeneID 53472) [DRSC21587]
- mean Z score: -0.0718
- ATP luminescence, replicate 1: 42285
- ATP luminescence, replicate 2: 52024

Aplip1 (GeneID 53472) [DRSC26312]
- mean Z score: -0.177
- ATP luminescence, replicate 1: 61644
- ATP luminescence, replicate 2: 52847

mthl11 (GeneID 117467) [DRSC12779]
- mean Z score: -0.338
- ATP luminescence, replicate 1: 37605
- ATP luminescence, replicate 2: 51544

mthl11 (GeneID 117467) [DRSC28437]
- mean Z score: -0.454
- ATP luminescence, replicate 1: 55203
- ATP luminescence, replicate 2: 53571

Scgbeta (GeneID 41525) [DRSC15854]
- mean Z score: -0.435
- ATP luminescence, replicate 1: 35513
- ATP luminescence, replicate 2: 52847

Abcd3 (GeneID 32992) [DRSC19488]
- mean Z score: -0.219
- ATP luminescence, replicate 1: 40365
- ATP luminescence, replicate 2: 42902

Abcd3 (GeneID 32992) [DRSC29341]
- mean Z score: 0.33
- ATP luminescence, replicate 1: 66857
- ATP luminescence, replicate 2: 66103

CG11425 (GeneID 40472) [DRSC11657]
- mean Z score: 0.46
- ATP luminescence, replicate 1: 89824
- ATP luminescence, replicate 2: 65039

CG11425 (GeneID 40472) [DRSC28400]
- mean Z score: -0.21
- ATP luminescence, replicate 1: 56859
- ATP luminescence, replicate 2: 59466

In a second layout: entries from further up.
senju (GeneID 33734) [DRSC39769] | mean Z score: -0.0856; ATP luminescence, replicate 1: 53790; ATP luminescence, replicate 2: 56308
CG5348 (GeneID 36877) [DRSC06933] | mean Z score: -0.419; ATP luminescence, replicate 1: 67134; ATP luminescence, replicate 2: 66320
